We go through 1 compound from patent US7319153B2, “6,13-Bis(thienyl)pentacene compounds” (3M Innovative Properties Company, priority 2005, dated 2008).

The nature of this series: Thin film transistor performance test (OTFT with vacuum-sublimed semiconductor layer). Particulars: room temperature in air; for Mobility: 600 Å layer.
The mark [1] stands for this setting: gate dielectric Alumina, no surface treatment.
[2] abbreviates: gate dielectric Alumina/α-methylstyrene surface treatment.

As to `c1csc(-c2c3cc4ccccc4cc3c(-c3cccs3)c3cc4ccccc4cc23)c1` [Example 1, 2-(13-thien-2-ylpentacene-6-yl)thiophene], under setting [1], the “On/Off Ratio” value is listed as 1.5 × 10^3, the S was determined as 2.06 V/decade, the Vt is recorded as −18.2 volts and the Mobility was 3.45 × 10^−4 cm^2/V-sec. Further, under setting [2], the “On/Off Ratio” value is given as 1.1 × 10^4, the S is 1.04 V/decade, the Vt is −3.38 volts and the Mobility is given as 1.83 × 10^−2 cm^2/V-sec. Also, under “gate dielectric Silica”, the “On/Off Ratio” value is on record as 80.4, the S is 5.01 V/decade, the Vt was 0.0429 volts and the Mobility is listed as 6.92 × 10^−6 cm^2/V-sec.
